# Test results as given in doi:10.1101/500736.
# Sequences of proteins named here, by UniProt entry; tags and fusion partners are left off.
# UniProt Q8W234: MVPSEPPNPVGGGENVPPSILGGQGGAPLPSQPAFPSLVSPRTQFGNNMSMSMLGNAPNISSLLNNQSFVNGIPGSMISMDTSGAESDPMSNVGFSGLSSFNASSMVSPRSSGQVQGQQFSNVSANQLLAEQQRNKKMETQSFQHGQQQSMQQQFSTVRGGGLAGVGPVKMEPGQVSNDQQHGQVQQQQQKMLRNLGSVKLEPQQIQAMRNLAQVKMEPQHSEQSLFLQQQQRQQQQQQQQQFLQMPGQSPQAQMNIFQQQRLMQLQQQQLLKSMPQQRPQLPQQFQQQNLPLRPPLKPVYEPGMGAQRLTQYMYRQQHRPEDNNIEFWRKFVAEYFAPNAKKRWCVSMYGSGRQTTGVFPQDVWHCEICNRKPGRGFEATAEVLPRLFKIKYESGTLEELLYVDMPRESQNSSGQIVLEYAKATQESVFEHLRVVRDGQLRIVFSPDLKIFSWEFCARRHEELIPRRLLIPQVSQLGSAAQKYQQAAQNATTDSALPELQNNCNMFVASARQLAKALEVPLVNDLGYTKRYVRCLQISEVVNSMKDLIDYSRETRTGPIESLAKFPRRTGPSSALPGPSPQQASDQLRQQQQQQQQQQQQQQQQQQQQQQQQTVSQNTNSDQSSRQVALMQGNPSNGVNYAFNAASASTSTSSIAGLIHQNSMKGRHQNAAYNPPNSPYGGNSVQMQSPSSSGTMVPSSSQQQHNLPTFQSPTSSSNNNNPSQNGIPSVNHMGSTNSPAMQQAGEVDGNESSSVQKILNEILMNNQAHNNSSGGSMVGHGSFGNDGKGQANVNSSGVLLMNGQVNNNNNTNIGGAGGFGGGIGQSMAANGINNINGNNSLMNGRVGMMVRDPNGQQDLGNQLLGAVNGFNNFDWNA
# UniProt P17839: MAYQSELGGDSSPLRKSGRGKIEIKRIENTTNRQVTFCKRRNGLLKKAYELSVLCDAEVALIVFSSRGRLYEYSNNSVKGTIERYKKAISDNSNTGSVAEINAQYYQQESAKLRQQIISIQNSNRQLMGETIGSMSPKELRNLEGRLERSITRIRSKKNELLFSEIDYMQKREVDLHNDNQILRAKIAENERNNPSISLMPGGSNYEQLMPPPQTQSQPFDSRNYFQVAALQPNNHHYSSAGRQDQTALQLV
# No constants are given. Whether binding was seen depends on the method and setting. Some results given as binding are weak or reduced against the parent protein; the word gives no strength.
# How the values were obtained:
# [1] = molecular target: T1, LUG (Arabidopsis thaliana) (UniProt Q9FUY2); experiment: two-hybrid
# T1 sequence: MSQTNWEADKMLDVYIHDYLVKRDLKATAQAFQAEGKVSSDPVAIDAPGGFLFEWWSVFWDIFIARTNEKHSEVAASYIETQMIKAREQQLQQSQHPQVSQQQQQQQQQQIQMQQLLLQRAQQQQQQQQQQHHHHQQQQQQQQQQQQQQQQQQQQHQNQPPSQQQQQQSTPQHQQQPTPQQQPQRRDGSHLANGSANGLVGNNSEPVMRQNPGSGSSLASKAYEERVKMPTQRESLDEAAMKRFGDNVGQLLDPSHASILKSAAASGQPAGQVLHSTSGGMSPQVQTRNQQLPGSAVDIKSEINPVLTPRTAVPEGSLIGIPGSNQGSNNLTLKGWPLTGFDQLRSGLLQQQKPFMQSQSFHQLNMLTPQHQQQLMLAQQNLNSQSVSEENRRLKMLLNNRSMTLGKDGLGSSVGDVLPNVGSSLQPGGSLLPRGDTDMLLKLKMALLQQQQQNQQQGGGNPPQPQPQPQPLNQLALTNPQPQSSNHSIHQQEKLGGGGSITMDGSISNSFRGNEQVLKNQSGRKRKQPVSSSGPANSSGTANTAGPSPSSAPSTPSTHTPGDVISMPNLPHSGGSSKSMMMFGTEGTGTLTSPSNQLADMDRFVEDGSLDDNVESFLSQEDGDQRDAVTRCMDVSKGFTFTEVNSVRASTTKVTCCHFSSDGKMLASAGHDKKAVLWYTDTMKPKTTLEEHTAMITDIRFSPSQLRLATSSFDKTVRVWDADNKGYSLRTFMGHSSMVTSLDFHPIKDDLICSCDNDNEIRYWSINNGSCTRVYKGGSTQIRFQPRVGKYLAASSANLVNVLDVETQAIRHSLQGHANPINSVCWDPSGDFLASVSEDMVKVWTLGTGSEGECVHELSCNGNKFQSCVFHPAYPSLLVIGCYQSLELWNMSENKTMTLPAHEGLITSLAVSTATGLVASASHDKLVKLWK
# [2] = molecular target: …3 (Arabidopsis thaliana) (UniProt O22456); experiment: two-hybrid
substance,measurement,setting,value
SEU (from UniProt Q8W234 1-877),binding,[1],binds
AG (from UniProt P17839 1-252),binding,[2],binds
